Experimental data from PubChem BioAssay AID1259415 (National Center for Advancing Translational Sciences (NCATS), 2018).
Values joined by “and” are separate entries in the source; they are usually repeats but may differ in a detail not shown here. Equal entries are not always repeated. Among all 410,000 compounds or so, about 18,000 (4.4%) were called active. Inconclusive results, whose numbers are uncertain, are shown with a selection of clear calls. Rule as the data show it: active = activity change below about -60%; inconclusive = no clear call, values can overlap the other calls; inactive = above about -39%.

Experiment: qHTS Assay for inhibitors of the human cytomegalovirus (HCMV)
Conditions: HFF cells, HCMV-luciferase reporter, 72 h; at 57.5 µM; stronger effect = lower value
In short: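 Human foreskin fibroblasts infected with luciferase-reporter HCMV at MOI 1 PFU/cell, compounds at two doses. Luciferase measured 72 h post infection; normalized to buffer-only basal and Salinomycin (10uM) controls.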
% is scaled to controls: 0 for no effect and ±100 for the full control effect.

SMILES | activity change, negative = inhibition
COCCN(C)Cc1cn(-c2ccc(F)cc2F)nc1-c1ccccc1C | inconclusive: -40.6%
COc1ccc(C(C)=O)cc1CSc1nc(NCc2ccc(Cl)cc2)c2ccccc2n1 | inconclusive: -48.1%
CC(C)(C)OC(=O)N1CCC(c2c(C(=O)NCC3CCN(C4CCCC4)C3)cnn2-c2ccc(F)cc2)CC1 (stereo not drawn) | inconclusive: 0%
NC(c1csc(Nc2ccccn2)n1)c1ccccc1Cl (stereo not drawn) | inconclusive: -43.3%
CCOc1ccc(CNC(=O)c2ccc(Sc3ccc(C)cc3)c(N)c2)cc1OC | active: -62.1%
O=C(C1=C[C@@H](c2ccc(C(F)(F)F)cc2)C[C@@H](OCCCCO)O1)N1CCCCCCC1 | inactive: -0.439%
Cc1ccc2c(c1)CCCN2S(=O)(=O)c1cccc(C(=O)Nc2ccccc2C(=O)O)c1 | inconclusive: -59.9%
COCCN(C(=O)CSc1nnc(-c2ccccc2F)n1C)c1c(N)n(Cc2ccccc2)c(=O)[nH]c1=O | inactive: 24.2%
COC(=O)C1=C(C)N(Cc2ccc(C(F)(F)F)cc2)C(=NCc2ccccc2)NC1c1cccc(F)c1 (stereo not drawn) | active: -99.3%
Cc1ccc(NC(=O)c2cnc(SCC(=O)N3CCCc4ccccc43)n(C)c2=O)cc1C | inconclusive: -50.3%
Cn1ccc(=Nc2ccc(NC(=O)c3ccc(N=c4ccn(C)c5ccc([N+](=O)[O-])cc45)cc3)cc2)cc1 | active: -96.1%
CCCCc1c(-c2ccccc2OC)ncn1CCc1ccc(OC)cc1 | active: -63.6%
O=C(CC1C(=O)N(Cc2ccccc2)C(=S)N1CCN1CCOCC1)Nc1ccc(F)cc1 (stereo not drawn) | active: -68.6%
Cc1ccc(C(C#N)c2ccc3c(C(F)(F)F)cc(C(F)(F)F)nc3n2)cc1 (stereo not drawn) | active: -99.1%
OC(c1ccccc1)C(O)C(c1ccccc1)N1CCCCC1 (stereo not drawn) | inconclusive: -42.3%
COc1ccc(S(=O)(=O)N2CCC[C@H]2C(=O)NCc2ccc(Cl)cc2)cc1 | inconclusive: -40.6%
COC(=O)c1ccc(C(=O)OC)c(NC(=O)CN2CCC(C)CC2)c1 | inconclusive: -49%
O=C(C1=C[C@H](c2ccc(Br)cc2)C[C@H](OCc2ccc(CO)cc2)O1)N1CCOCC1 | inactive: -5.65%
Cc1ccc2[nH]c(-c3cscn3)c([N+](=O)[O-])c2c1 | inconclusive: -40.2%
NC(=S)N/N=C/c1cn(CCC(=O)O)nc1-c1cccc(Br)c1 | inconclusive: -40.9%
CCOc1ccc(NS(=O)(=O)c2ccc3[nH]c(=O)[nH]c3c2)cc1 | inconclusive: -44.6%
C=CCn1c(-c2ccc(OC)cc2)csc1=Nc1c(C)n(C)n(-c2ccccc2)c1=O | inconclusive: -56.1%

SMILES | activity change, negative = inhibition
Cc1ccc(N2CCN(CCc3ccccc3)CC2)cc1 | inconclusive: -43.9%
Cc1ccc(C(=O)NCC(=O)OCc2c(F)cccc2Cl)cc1 | inconclusive: -40.6%
CCN(CC)CCn1c(N)nc2ccccc21 | inconclusive: -40.6%
O=C(NCc1cccs1)c1csc2c1CCCCC2 | inactive: -35.3%
Brc1ccc(-c2nc(N3CCN(c4ccccc4)CC3)c3ccccc3n2)cc1 | inconclusive: -52.6%
Nc1cc(=O)[nH]c(SCC(=O)N2N=C(c3ccc(Cl)cc3)CC2c2ccco2)n1 (stereo not drawn) | inconclusive: -45.5%
CC1(C)CCc2cc(-c3ccnc(=S)[nH]3)ccc2O1 | inconclusive: -59.4%
CCOc1ccc2nc(N3CCN(C(=O)C(C)C)CC3)sc2c1 | inconclusive: -48%
CC1(C(=O)NS(=O)(=O)Cc2ccccc2)CCN1C(=O)C1(c2ccc(Cl)cc2)CC1 (stereo not drawn) | inconclusive: -54.4%
O=[N+]([O-])c1ccc(Nc2ccccc2F)nc1 | inconclusive: -54.3%
CC(=O)NCCc1c[nH]c2ccc(O)cc12 | inconclusive: -47.8%
CCC(C)(C)C1CCC2(CC1)NC(=O)N(CC(=O)N(C)Cc1ccc(OC(F)F)cc1)C2=O (stereo not drawn) | inconclusive: -56.4%
OCC1OC(n2ccc3c(NO)ncnc32)C(O)C1O (stereo not drawn) | active: -97.6%
CCOC(=O)c1c(NC(=O)c2ccccc2C)sc2c1CCCC2 | inconclusive: -44.8%
CC(NC(=O)/C=C/c1cnc2ccccc2n1)C12CC3CC(CC(C3)C1)C2 (stereo not drawn) | inconclusive: -51%
Oc1ccccc1-c1nc(/C=C/c2ccccc2)nn1-c1ccccc1 | inactive: -12.9% and inconclusive: -45.3%
O=C(CN1C(=O)COc2ccc(S(=O)(=O)N3CCCC3)cc21)NCCc1ccc(Cl)cc1 | active: -72.7%
O=C(OCc1ccco1)c1ccc2c(c1)N(Cc1ccc([N+](=O)[O-])cc1)C(=O)c1ccccc1S2 | inactive: 13.8%
CNC(=O)CSc1nnc(SCCC(=O)O)s1 | inconclusive: -40.8%
COc1cc(C(=O)OCC(=O)N2CCCCC2C)cc(NC(=O)c2cccs2)c1OC (stereo not drawn) | inconclusive: -52.5%

Structural class, the entries above with a COOH group
SMILES | activity change, negative = inhibition
Cc1ccc2c(c1)CCCN2S(=O)(=O)c1cccc(C(=O)Nc2ccccc2C(=O)O)c1 | inconclusive: -59.9%
NC(=S)N/N=C/c1cn(CCC(=O)O)nc1-c1cccc(Br)c1 | inconclusive: -40.9%
CNC(=O)CSc1nnc(SCCC(=O)O)s1 | inconclusive: -40.8%
